PubChem BioAssay AID1224830, NIAID – 2016

Screen: 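Host factors that control LPS-induced TNF expression in human macrophages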 (primary screen)
System: human THP-1 monocytic leukaemia cells, TNF dual-luciferase reporter clone, PMA-differentiated to macrophage-like cells
Reagent: siRNA pool against human genes, 50 nM
Duration: LPS for 4 h, given about 3 days after siRNA transfection
Challenge: bacterial LPS (TLR4 ligand), 10 ng/ml
Detection: 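TNF firefly reporter luminescence divided by renilla, normalised to the plate median, then turned into a robust z-score for each replicate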
Reading the numbers: TNF reporter robust z-score: higher = stronger TNF reporter response to LPS
Active means: 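Each well counts as active if its z-score is over 2.8 or under -1.5; controls are left without a call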
This is one part, drawn at random, of about 18,000 reagents tested. About 2,900 of all reagents (16%) count as active. 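Calls are made per well; low scores hint the gene aids the LPS response, high scores that it dampens it.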 Repeated entries: four replicate wells of each siRNA pool.

ARRDC3 (arrestin domain containing 3)
- TNF reporter robust z-score: 1.05
- Outcome: inactive

ARRDC3 (arrestin domain containing 3)
- TNF reporter robust z-score: 1.25
- Outcome: inactive

ARRDC3 (arrestin domain containing 3)
- TNF reporter robust z-score: 1.21
- Outcome: inactive

ARRDC3 (arrestin domain containing 3)
- TNF reporter robust z-score: -0.44
- Outcome: inactive

IFI44L (interferon induced protein 44 like)
- TNF reporter robust z-score: 0.97
- Outcome: inactive

IFI44L (interferon induced protein 44 like)
- TNF reporter robust z-score: 0.2
- Outcome: inactive

IFI44L (interferon induced protein 44 like)
- TNF reporter robust z-score: 1.37
- Outcome: inactive

IFI44L (interferon induced protein 44 like)
- TNF reporter robust z-score: 0.39
- Outcome: inactive

OR13C9 (olfactory receptor family 13 subfamily C member 9)
- TNF reporter robust z-score: 0.25
- Outcome: inactive

OR13C9 (olfactory receptor family 13 subfamily C member 9)
- TNF reporter robust z-score: -0.81
- Outcome: inactive

OR13C9 (olfactory receptor family 13 subfamily C member 9)
- TNF reporter robust z-score: -0.29
- Outcome: inactive

OR13C9 (olfactory receptor family 13 subfamily C member 9)
- TNF reporter robust z-score: 0.23
- Outcome: inactive

3 neighbouring entries already listed, for reference:
IFI44L (interferon induced protein 44 like)
- TNF reporter robust z-score: 0.97
- Outcome: inactive

IFI44L (interferon induced protein 44 like)
- TNF reporter robust z-score: 0.2
- Outcome: inactive

IFI44L (interferon induced protein 44 like)
- TNF reporter robust z-score: 1.37
- Outcome: inactive

The listing continues:
STIMATE (STIM activating enhancer)
- TNF reporter robust z-score: 4.06
- Outcome: active

STIMATE (STIM activating enhancer)
- TNF reporter robust z-score: 14.1
- Outcome: active

STIMATE (STIM activating enhancer)
- TNF reporter robust z-score: 1.31
- Outcome: inactive

STIMATE (STIM activating enhancer)
- TNF reporter robust z-score: 0.66
- Outcome: inactive

FAM3D (FAM3 metabolism regulating signaling molecule D)
- TNF reporter robust z-score: -0.68
- Outcome: inactive

FAM3D (FAM3 metabolism regulating signaling molecule D)
- TNF reporter robust z-score: -0.04
- Outcome: inactive

FAM3D (FAM3 metabolism regulating signaling molecule D)
- TNF reporter robust z-score: 0.36
- Outcome: inactive

FAM3D (FAM3 metabolism regulating signaling molecule D)
- TNF reporter robust z-score: -0.45
- Outcome: inactive

FOXB2 (forkhead box B2)
- TNF reporter robust z-score: -0.09
- Outcome: inactive

FOXB2 (forkhead box B2)
- TNF reporter robust z-score: -0.32
- Outcome: inactive

FOXB2 (forkhead box B2)
- TNF reporter robust z-score: 0.51
- Outcome: inactive

FOXB2 (forkhead box B2)
- TNF reporter robust z-score: 1.29
- Outcome: inactive

LRRC41 (leucine rich repeat containing 41)
- TNF reporter robust z-score: 0.55
- Outcome: inactive

LRRC41 (leucine rich repeat containing 41)
- TNF reporter robust z-score: 0.7
- Outcome: inactive

LRRC41 (leucine rich repeat containing 41)
- TNF reporter robust z-score: 0.51
- Outcome: inactive

LRRC41 (leucine rich repeat containing 41)
- TNF reporter robust z-score: 0.33
- Outcome: inactive

TSPAN6 (tetraspanin 6)
- TNF reporter robust z-score: 2.42
- Outcome: inactive

TSPAN6 (tetraspanin 6)
- TNF reporter robust z-score: 2.1
- Outcome: inactive

TSPAN6 (tetraspanin 6)
- TNF reporter robust z-score: 0.72
- Outcome: inactive

TSPAN6 (tetraspanin 6)
- TNF reporter robust z-score: 0.91
- Outcome: inactive
